Assay results: the supplement of paper PMC12067093, “Discovery and optimisation of a covalent ligand for TRIM25 and its application to targeted protein ubiquitination” (Chemical Science, 2025)
Some of the results follow.

By UniProt entry, the sequences of proteins in these tests, tags left out. Where a name states a change or a piece, a line headed by the entry shows the natural chain unless it says otherwise.
UniProt P28907, whole entry, looked up: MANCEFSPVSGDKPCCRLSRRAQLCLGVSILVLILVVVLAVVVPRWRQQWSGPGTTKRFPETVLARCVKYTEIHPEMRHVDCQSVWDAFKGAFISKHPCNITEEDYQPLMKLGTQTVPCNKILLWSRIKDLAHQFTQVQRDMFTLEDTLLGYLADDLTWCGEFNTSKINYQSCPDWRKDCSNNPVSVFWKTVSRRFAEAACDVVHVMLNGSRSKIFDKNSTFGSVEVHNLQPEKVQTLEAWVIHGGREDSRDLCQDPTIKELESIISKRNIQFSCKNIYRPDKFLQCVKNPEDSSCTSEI
UniProt Q76N32: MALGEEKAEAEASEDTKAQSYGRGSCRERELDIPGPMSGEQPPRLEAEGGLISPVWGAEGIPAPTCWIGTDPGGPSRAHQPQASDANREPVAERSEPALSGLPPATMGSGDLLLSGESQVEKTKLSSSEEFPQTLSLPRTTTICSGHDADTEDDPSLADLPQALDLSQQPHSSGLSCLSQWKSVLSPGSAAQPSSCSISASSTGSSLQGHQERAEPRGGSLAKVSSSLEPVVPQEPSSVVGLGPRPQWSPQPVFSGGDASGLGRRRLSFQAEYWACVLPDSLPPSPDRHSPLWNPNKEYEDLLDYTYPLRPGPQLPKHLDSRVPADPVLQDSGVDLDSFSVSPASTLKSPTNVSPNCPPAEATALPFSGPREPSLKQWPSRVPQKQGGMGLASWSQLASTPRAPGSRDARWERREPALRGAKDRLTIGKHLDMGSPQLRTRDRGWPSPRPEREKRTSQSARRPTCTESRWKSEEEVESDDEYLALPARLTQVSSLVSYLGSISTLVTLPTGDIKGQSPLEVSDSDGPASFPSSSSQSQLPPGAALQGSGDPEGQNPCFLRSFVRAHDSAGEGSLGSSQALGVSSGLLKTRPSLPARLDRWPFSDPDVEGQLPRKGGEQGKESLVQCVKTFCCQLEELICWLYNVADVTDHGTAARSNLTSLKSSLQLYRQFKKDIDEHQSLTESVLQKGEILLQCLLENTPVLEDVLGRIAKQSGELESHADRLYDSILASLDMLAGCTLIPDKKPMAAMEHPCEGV
UniProt P57076: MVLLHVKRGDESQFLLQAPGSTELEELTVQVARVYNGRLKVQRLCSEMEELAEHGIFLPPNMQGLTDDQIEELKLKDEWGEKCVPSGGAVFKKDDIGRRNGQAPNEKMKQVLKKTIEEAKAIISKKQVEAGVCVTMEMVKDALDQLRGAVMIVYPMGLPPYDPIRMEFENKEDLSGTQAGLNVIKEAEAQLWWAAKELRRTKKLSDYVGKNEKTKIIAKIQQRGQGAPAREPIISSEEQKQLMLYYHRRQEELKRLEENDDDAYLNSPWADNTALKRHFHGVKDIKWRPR
UniProt P15529: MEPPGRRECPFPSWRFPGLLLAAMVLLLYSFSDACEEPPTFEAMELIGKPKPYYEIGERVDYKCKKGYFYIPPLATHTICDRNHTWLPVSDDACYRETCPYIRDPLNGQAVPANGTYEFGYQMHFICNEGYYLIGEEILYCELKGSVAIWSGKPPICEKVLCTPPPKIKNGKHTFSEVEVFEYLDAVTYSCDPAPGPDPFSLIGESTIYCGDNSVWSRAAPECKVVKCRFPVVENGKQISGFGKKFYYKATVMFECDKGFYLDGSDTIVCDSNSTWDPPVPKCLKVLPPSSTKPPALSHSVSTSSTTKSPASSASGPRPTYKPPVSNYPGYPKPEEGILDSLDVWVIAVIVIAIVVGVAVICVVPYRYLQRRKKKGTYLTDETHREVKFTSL
UniProt P40227, whole entry, looked up: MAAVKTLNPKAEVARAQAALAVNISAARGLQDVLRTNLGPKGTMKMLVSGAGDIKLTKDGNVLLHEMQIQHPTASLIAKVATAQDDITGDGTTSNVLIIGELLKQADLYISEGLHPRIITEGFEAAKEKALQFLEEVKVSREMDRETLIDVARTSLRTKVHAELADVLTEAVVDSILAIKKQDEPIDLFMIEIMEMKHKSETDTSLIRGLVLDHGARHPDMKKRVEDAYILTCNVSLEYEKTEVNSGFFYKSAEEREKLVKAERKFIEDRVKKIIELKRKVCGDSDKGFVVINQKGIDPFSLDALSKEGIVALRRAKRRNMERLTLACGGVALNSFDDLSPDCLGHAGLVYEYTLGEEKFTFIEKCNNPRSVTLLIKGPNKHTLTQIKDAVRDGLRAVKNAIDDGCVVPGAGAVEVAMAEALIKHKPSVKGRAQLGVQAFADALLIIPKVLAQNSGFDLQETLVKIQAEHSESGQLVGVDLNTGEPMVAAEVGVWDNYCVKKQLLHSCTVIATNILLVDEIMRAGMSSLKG
UniProt Q9NSP4: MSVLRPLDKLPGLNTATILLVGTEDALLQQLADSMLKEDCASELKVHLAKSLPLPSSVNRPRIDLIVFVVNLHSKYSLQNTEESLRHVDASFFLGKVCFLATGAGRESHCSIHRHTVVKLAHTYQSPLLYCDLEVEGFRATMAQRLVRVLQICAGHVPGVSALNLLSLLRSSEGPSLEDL
UniProt Q7Z7K6: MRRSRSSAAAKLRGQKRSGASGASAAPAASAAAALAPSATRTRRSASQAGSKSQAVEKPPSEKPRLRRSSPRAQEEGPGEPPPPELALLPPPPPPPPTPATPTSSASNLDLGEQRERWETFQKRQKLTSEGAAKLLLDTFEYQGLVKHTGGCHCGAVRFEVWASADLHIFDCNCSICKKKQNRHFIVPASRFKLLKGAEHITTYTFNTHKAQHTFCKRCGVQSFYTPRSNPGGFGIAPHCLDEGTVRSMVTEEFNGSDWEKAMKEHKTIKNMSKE
UniProt P49454: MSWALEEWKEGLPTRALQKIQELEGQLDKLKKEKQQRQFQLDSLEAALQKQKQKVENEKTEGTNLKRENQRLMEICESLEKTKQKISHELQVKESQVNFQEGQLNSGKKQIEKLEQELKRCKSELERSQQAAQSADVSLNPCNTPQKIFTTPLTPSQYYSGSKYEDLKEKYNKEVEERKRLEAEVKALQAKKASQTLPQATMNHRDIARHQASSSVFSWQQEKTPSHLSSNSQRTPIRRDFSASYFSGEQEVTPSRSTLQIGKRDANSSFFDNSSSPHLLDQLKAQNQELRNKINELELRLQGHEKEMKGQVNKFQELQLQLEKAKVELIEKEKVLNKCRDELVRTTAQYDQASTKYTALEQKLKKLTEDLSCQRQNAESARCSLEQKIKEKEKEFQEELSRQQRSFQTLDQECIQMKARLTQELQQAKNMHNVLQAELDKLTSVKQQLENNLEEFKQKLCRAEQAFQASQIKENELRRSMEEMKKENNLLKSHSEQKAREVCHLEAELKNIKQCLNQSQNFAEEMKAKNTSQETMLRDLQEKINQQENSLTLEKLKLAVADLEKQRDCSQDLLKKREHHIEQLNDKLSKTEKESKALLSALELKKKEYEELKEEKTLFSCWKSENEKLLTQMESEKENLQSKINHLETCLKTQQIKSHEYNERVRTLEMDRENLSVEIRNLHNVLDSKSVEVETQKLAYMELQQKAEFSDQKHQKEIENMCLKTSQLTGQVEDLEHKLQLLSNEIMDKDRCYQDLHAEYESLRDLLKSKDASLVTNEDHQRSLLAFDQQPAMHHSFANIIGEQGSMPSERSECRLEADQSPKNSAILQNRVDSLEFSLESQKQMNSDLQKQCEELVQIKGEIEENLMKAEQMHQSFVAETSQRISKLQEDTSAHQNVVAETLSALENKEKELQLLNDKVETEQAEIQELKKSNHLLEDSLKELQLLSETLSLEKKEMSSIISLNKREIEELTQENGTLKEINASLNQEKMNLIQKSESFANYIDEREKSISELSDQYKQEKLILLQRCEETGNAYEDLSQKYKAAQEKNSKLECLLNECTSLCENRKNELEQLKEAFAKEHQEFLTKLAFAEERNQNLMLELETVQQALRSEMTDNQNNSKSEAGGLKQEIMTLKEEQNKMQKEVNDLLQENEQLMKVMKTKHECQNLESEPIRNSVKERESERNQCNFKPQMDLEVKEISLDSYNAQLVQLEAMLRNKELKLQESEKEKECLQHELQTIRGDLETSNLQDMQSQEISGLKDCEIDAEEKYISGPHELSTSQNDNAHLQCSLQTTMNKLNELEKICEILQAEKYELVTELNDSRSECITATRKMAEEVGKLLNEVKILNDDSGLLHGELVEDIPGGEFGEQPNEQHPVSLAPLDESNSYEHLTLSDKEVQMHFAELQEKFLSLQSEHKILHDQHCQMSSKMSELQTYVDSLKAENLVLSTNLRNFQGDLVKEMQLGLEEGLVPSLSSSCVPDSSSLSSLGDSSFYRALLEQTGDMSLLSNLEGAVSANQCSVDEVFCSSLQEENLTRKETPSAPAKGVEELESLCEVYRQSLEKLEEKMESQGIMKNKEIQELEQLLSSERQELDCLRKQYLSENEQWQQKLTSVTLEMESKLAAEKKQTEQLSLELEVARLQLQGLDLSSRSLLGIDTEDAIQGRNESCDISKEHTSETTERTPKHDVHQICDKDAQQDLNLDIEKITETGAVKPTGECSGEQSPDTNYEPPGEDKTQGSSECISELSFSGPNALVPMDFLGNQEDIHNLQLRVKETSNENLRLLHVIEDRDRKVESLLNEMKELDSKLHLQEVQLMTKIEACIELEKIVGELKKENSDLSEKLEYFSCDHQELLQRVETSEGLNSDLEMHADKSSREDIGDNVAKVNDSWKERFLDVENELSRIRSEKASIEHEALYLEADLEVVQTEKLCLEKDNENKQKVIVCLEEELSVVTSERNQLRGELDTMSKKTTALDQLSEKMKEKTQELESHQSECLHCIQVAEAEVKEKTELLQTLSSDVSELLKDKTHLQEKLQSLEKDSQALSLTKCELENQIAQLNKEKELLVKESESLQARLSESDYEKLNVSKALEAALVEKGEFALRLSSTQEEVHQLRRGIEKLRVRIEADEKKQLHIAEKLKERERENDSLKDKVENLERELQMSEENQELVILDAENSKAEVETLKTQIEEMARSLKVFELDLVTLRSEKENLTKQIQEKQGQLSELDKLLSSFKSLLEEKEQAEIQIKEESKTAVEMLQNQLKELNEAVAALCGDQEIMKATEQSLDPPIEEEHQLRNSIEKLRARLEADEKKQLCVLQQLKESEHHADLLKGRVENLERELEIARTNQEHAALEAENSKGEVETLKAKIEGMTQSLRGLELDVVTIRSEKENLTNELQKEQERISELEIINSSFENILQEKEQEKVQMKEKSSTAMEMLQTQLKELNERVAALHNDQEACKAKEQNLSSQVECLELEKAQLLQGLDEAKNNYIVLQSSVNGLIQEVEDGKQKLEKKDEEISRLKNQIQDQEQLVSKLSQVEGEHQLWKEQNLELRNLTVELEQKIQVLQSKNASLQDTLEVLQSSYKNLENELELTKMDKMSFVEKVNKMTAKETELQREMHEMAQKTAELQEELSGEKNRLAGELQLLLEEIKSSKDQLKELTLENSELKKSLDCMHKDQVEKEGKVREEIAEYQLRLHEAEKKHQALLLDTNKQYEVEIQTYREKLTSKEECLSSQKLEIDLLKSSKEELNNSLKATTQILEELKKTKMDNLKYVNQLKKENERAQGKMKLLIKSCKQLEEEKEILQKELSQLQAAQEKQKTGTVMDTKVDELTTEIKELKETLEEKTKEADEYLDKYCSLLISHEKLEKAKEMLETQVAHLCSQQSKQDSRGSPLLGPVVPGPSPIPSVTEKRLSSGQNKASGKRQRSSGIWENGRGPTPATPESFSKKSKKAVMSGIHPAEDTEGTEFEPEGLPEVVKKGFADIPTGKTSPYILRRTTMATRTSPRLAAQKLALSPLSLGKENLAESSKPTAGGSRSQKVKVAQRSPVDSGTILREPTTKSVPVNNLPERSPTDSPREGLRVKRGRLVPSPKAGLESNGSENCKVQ
UniProt Q13042, whole entry, looked up: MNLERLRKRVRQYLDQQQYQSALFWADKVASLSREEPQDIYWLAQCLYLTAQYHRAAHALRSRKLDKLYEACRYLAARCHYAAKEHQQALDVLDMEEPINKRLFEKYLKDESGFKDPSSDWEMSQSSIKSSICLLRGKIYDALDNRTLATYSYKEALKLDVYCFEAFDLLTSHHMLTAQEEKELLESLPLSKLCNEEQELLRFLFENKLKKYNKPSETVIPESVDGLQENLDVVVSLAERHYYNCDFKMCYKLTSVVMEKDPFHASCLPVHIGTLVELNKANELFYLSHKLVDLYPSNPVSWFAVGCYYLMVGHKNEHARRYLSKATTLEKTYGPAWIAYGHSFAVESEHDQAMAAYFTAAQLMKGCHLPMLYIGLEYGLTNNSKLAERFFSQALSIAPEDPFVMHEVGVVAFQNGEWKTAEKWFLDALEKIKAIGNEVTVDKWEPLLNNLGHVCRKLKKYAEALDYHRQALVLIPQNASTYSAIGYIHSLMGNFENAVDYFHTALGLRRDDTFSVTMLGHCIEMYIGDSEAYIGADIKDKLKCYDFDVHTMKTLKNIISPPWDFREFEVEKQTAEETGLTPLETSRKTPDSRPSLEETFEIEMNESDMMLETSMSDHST

Compound: Cc1cc(ccc1-c1ccccc1)C(=O)N1CCCN(CC1)C(=O)CCl [compound 10]
Assay: probe-labelled cysteine peptide fold change vs DMSO (competition) (log2 fold change); higher = less target engagement (more negative = stronger competition)
Settings: THP-1, incubation time: 4 h
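Further: competitive profiling in live THP-1 cells: cysteine peptides tagged with an iodoacetamide desthiobiotin (IA-DTB) probe, intensity after compound treatment relative to DMSO-treated cells.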

Row | Target | probe-labelled cysteine peptide fold change (10 µM) | probe-labelled cysteine peptide fold change (50 µM)
1 | CD38_P28907_119_LGTQTVPCNK (UniProt P28907) | -0.194 | -0.112
2 | CEP68_Q76N32_465_RPTCTESR (UniProt Q76N32) | -0.05 | -0.0517
3 | CDYL_Q9Y232_515_LTAQEACGK (UniProt Q9Y232) | 0.0333 | 0.277
4 | CFD_P00746_148_VDRDVAPGTLCDVAGWGIVNHAGR (UniProt P00746) | -0.0268 | -0.246
5 | CDC27_P30260_115+126_SHDDIVTEFGDSACFTLSLLGHVYCK (UniProt P30260) | 0.494 | 0.00837
6 | CFAP298_P57076_83_CVPSGGAVFKK (UniProt P57076) | -0.318 | -0.252
7 | CDK8_P49336_64_QIEGTGISMSACR (UniProt P49336) | -0.111 | -0.537
8 | CDC42_P60953_18_TCLLISYTTNK (UniProt P60953) | 0.711 | 0.582
9 | CD46_P15529_162_VLCTPPPK (UniProt P15529) | 0.00526 | 0.0163
10 | CCT6A_P40227_406_NAIDDGCVVPGAGAVEVAMAEALIK (UniProt P40227) | -0.0356 | 0.0935
11 | CENPM_Q9NSP4_98_VCFLATGAGR (UniProt Q9NSP4) | -0.175 | 0.132
12 | CDC37_Q16543_64_KVAECQR (UniProt Q16543) | 0.172 | -0.253
13 | CDK12_Q9NYV4_1039_MAPPDLPHWQDCHELWSK (UniProt Q9NYV4) | -0.149 | -0.32
14 | CES1_P23141_116_LSEDCLYLNIYTPADLTK (UniProt P23141) | 0.146 | 0.347
15 | CDAN1_Q8IWY9_1017_ACEHHAPLPSHLISEIK (UniProt Q8IWY9) | 0.188 | -0.15
16 | CENPV_Q7Z7K6_240_SNPGGFGIAPHCLDEGTVR (UniProt Q7Z7K6) | -0.111 | -0.164
17 | CDC73_Q6P1J9_145_IEDEECVR (UniProt Q6P1J9) | -0.177 | 0.00142
18 | CENPF_P49454_339_CRDELVR (UniProt P49454) | 0.481 | 0.506
19 | CDC123_O75794_9_EHVLHCQFSAWYPFFR (UniProt O75794) | 0.161 | 0.261
20 | CENPF_P49454_569_DCSQDLLK (UniProt P49454) | 0.00598 | -0.032
21 | CDC16_Q13042_455_AIGNEVTVDKWEPLLNNLGHVCR (UniProt Q13042) | 0.00676 | 0.126
22 | CEP350_Q5VT06_2716_LCTPLLDLLTR (UniProt Q5VT06) | -0.0654 | -0.155
23 | CD151_P48509_192_TVVALCGQR (UniProt P48509) | -0.059 | -0.0247
24 | CENPH_Q9H3R5_35_AGGPPQVAGAQAACSEDR (UniProt Q9H3R5) | 0.157 | -0.317
25 | CD38_P28907_254_DLCQDPTIK (UniProt P28907) | -0.444 | 0.0381
26 | CERCAM_Q5T4B2_391_GEVGCFLSHYSIWEEVVAR (UniProt Q5T4B2) | 0.0439 | -0.232
27 | CDC20_Q12834_313_VAEHHVATLSGHSQEVCGLR (UniProt Q12834) | 0.0629 | 0.0196
28 | CDK5_Q00535_83_KLTLVFEFCDQDLKK (UniProt Q00535) | -0.00991 | -0.158
29 | CDKN2C_P42773_141_GDTACDLAR (UniProt P42773) | 0.194 | 0.0643
30 | CCT8_P50990_430_QITSYGETCPGLEQYAIK (UniProt P50990) | -0.104 | 0.00767

Taken from above.
probe-labelled cysteine peptide fold change (10 µM), CFAP298_P57076_83_CVPSGGAVFKK (UniProt P57076) reads -0.318
probe-labelled cysteine peptide fold change (10 µM), CDC16_Q13042_455_AIGNEVTVDKWEPLLNNLGHVCR (UniProt Q13042) reads 0.00676
